# Primary screen of a compound library

Protein sequences, listed by entry. Tags and fused reporters are not part of them.
UniProt E9BF75, entry or part of it: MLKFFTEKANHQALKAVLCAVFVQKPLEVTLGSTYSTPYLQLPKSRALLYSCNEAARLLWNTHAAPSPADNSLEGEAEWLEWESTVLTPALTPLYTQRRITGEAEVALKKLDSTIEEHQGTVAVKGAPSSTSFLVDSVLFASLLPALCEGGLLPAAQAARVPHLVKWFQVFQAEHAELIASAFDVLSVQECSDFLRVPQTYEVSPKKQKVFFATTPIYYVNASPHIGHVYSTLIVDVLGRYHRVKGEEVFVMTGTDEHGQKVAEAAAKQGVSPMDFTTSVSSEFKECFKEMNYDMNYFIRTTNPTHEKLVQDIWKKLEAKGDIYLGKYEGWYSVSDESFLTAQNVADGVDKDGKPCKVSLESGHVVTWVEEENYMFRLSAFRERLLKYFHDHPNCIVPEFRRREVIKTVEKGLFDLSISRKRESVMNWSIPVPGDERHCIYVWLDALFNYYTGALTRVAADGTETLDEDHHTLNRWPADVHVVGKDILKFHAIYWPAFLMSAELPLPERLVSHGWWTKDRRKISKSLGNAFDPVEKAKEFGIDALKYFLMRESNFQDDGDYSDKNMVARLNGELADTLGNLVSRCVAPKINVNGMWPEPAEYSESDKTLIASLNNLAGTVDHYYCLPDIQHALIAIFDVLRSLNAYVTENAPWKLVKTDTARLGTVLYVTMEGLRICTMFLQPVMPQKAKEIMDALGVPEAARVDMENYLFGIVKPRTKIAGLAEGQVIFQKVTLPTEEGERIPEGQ

All values are in %. How 0% and 100% were set is not recorded. Most values in the screen are low, and negative values occur. Compounds were drawn at random from those tested, without regard to their results.

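Primary screen of methionyl-tRNA synthetase; the read-out is not stated. Target: Methionyl-tRNA synthetase (putative), Leishmania donovani (UniProt E9BF75). The test concentration is not given. The values are filed as inhibition. Of about 68,000 compounds tested this way, about 24 (0.035%) reached 50% or more in at least one test.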

structure	Inhibition
COc1ccccc1-c1nnc([C@H]2CCN(C(C)=O)C2)o1	10.44%
O=C(NC1CC1)N1CCCC2(CCCCN2)C1 (centres undefined)	12.78%
O=C(O)CC[C@@H]1CN(c2ccncc2)CC[C@@H]1N1CCOCC1	13.61%
Cc1cc(N2CCCN(CCc3ccccc3)CC2)ccn1	-4.032%
CC(SCCS(C)(=O)=O)c1nc(Cc2ccccc2)no1 (centres undefined)	13.23%
O=C(C1CCOCC1)N1C[C@@H]2OCCN(CCN3CCCC3)[C@@H]2C1	18.12%
O=C(c1ccc(=O)[nH]n1)N1CCNCC1c1ccccc1 (centres undefined)	5.696%
Cc1nc(CN(C)Cc2nc(-c3ccncc3)no2)co1	19.05%
Cc1cnn(CCC(=O)N2CCCC(c3noc(C)n3)C2)c1 (centres undefined)	18.18%
COCCCC1CCCCN1Cc1cc(F)ccc1-n1cccn1 (centres undefined)	8.871%
Cc1ccn(-c2cncc(C(N)=O)c2)n1	17.58%
Cc1ccc(-c2ccnc(NC(C)c3n[nH]c(C)n3)n2)c(C)n1 (centres undefined)	14.29%
Cc1ccccc1CNCc1cc(Cl)ccc1O	1.679%
CCc1nccn1C1CCCN(C(=O)c2cncn2-c2ccccc2)C1 (centres undefined)	12.53%
Cc1cc(C(=O)NCC2COCc3c(C)nnn3C2)no1 (centres undefined)	13.39%
COc1ccc(-c2nnc(SC(C)C(=O)NC(C)(C)C)[nH]2)c(OC)c1 (centres undefined)	26.53%
Cc1ccc(C(=O)NCC(O)c2cccc(F)c2)c(=O)[nH]1 (centres undefined)	22.29%
Cc1noc(C)c1CN(C)C(=O)C1CCN(S(N)(=O)=O)CC1	12.1%
COc1ccc(NC(=O)N2CCC(CSC)C2)cc1C (centres undefined)	13.6%
Cc1nnc(N2CCNCC2)c(C(N)=O)c1C	13.54%
Cc1nnc(CN2CCCC2c2c(C)nn(C)c2Cl)o1 (centres undefined)	18.86%
Cc1cccc(Nc2ccc(C3CCN(Cc4ncc[nH]4)CC3)nc2)n1	21.7%
CC(C)c1cc(C(=O)NCc2nc(-c3ccc(F)cc3)n[nH]2)n[nH]1	21.6%
COCCOCC(=O)Nc1nc2c(OC)cc(F)cc2s1	5.866%
CCN(Cc1ccncc1)Cc1c[nH]nc1-c1ccc(F)cc1	6.143%
CC(Nc1ccc(CN2CCCC2=O)cc1)C(=O)N(C)CCC#N (centres undefined)	6.906%
CN1C(=O)CC(c2cnn(C)c2)C12CCN(C(=O)c1ccco1)CC2 (centres undefined)	11.33%
CCCc1n[nH]c(C2CN(C(=O)c3cc(F)ccc3OC)CCO2)n1 (centres undefined)	13.39%
CC(NC(=O)Cn1cc(-c2ccccc2)cn1)C1CC1 (centres undefined)	15.95%
CCCS(=O)(=O)NC(C)C(=O)NCc1ccnc(N2CCCC2)c1 (centres undefined)	15.03%
Cc1ccc(CC(=O)N2CCC(Nc3cccnn3)CC2)s1	18.03%
Cc1c(C(=O)N2CCCC(n3cccn3)C2)nnn1-c1ccccc1 (centres undefined)	23.41%
O=C(NCC(O)c1ccc(F)c(F)c1)c1ccccc1F (centres undefined)	12.97%
CC(Oc1ccc(F)cc1F)C(=O)N1CCC2(CC1)CC(=O)N(C)C2 (centres undefined)	11.15%
Cc1nn(CCO)cc1CN1CCC(C(C)N2CCCC2)CC1 (centres undefined)	11.42%
Cc1ccc(C)c2c(C)c(C(=O)NCCCn3ccnn3)[nH]c12	2.5%
CC(C)[C@H](NS(C)(=O)=O)C(=O)NCc1cc(-c2cccc(Cl)c2)nn1C	4.612%
Cc1cc(C)c(CNC(=O)C(C)Oc2cccc(C#N)c2)c(=O)[nH]1 (centres undefined)	14.08%
CCC(=O)N1CSCC1C(=O)N(C)CCc1ccccc1 (centres undefined)	2.375%
CN(CC1CCCC1)C(=O)c1cn(C)nc1-c1cccnc1	18.51%
CSCCC(C)(O)CNC(=O)c1ccsc1 (centres undefined)	12.95%
COCC(=O)N1CCCC2(CCN(c3cncnc3)C2=O)C1 (centres undefined)	14.29%
O=C(c1ncc[nH]1)N1CCC(Cn2cc(-c3cccc(Cl)c3)nn2)CC1	8.333%
C[S+]([O-])CCNC(=O)N1CCN(c2cc(F)ccc2F)CC1 (centres undefined)	6.504%
CCCn1ccnc1CN1CCC(O)(CN2CCCCC2)C1 (centres undefined)	0.8955%
CCOc1ccc(N(CCC#N)C(=O)c2ccc(SC)nc2)cc1	11.98%
Cc1cccc(N2CCN(C(=O)NC(C)c3nncn3C)CC2)c1 (centres undefined)	12.43%
COc1ccc(F)cc1C(C)NC(=O)Nc1nnc(C)s1 (centres undefined)	10.78%
CSc1nnc(C2CCN(C(=O)N3CCOCC3)CC2)n1C(C)C	5.607%
COc1nc2cc(C)ccc2cc1CN(C)Cc1cc(C)[nH]n1	19.57%
CN(C)C(C)(C)CNCc1c[nH]nc1-c1cc2ccccc2o1	12.01%
COCc1ccc(C(=O)N2CCN(CC3CC3)[C@@H]3CS(=O)(=O)C[C@@H]32)o1	14.29%
CN(Cc1nc(-c2cccs2)no1)Cc1nc2c(s1)CCCC2	8.271%
COc1cc(OC)nc(N2CCCC(c3nccn3CCN(C)C)C2)n1 (centres undefined)	5.177%
Cc1nn(C)c(C)c1CN(C)C(=O)c1cc(C(F)(F)F)n(C)n1	-33.42%
CC(=O)N1C[C@H]2CNC[C@@]2(C(=O)NCCCOc2cccnc2)C1	5.882%
CCn1ccnc1CN1CCN(C(C)C(=O)NCc2ccco2)CC1 (centres undefined)	3.359%
COc1ccc(N2CCN(CC(O)c3ccc(C)cc3C)CC2)cc1 (centres undefined)	9.913%
O=C(c1ccco1)N1C[C@@H]2OCCN(c3ncccn3)[C@@H]2C1	-2.466%
CN1C(=O)CO[C@H]2CCN(C(=O)Cc3ccc4c(c3)CCCC4)CC[C@@H]21	15.22%
O=C(c1cc(COc2ccc3c(c2)OCO3)[nH]n1)N1CCCCO1	12.77%
CCc1ccc(C2CCCN2C(=O)CNC(=O)CCC(C)C)o1 (centres undefined)	6.832%
O=S(=O)(C1CC1)N1CCOC2(COCCN(c3ncccn3)C2)C1 (centres undefined)	8.759%
c1csc(-c2nc(CN3CCCC3Cn3cncn3)co2)c1 (centres undefined)	3.448%
COc1cccc(CC(=O)N2CCCC2c2nc(C)c(C)c(O)n2)c1 (centres undefined)	17.36%
CN(C)Cc1noc2c1CN(C(=O)c1ccncc1)CC2	2.439%
CC(CC(=O)NS(=O)(=O)c1ccc2c(c1)OCCO2)c1ccc(F)cc1 (centres undefined)	3.655%
CCn1c(CN(C)C)nnc1C1CCN(Cc2ccc(Cl)cc2)CC1	16.72%
Cc1noc(C(C)Nc2ccc3oc(=O)[nH]c3c2)n1 (centres undefined)	8.791%
O=S(=O)(CCOc1ccc(F)cc1)Nc1cnn(CC(F)F)c1	18.42%
CC(=O)N1[C@H](Cn2cncn2)C[C@@H]2CN(c3ccc(C)nn3)CC[C@@H]21	5.512%
CC(C)N1CCC(CC(=O)N2CCCCC2CCn2cccn2)CC1 (centres undefined)	7.945%
CC(=O)NCCNC(=O)Nc1ccc(Br)cc1C(C)C	-17.69%

The last 9 entries again:

{"structure": "COc1cccc(CC(=O)N2CCCC2c2nc(C)c(C)c(O)n2)c1", "stereo": "centres undefined", "Inhibition": 17.36}
{"structure": "CN(C)Cc1noc2c1CN(C(=O)c1ccncc1)CC2", "Inhibition": 2.439}
{"structure": "CC(CC(=O)NS(=O)(=O)c1ccc2c(c1)OCCO2)c1ccc(F)cc1", "stereo": "centres undefined", "Inhibition": 3.655}
{"structure": "CCn1c(CN(C)C)nnc1C1CCN(Cc2ccc(Cl)cc2)CC1", "Inhibition": 16.72}
{"structure": "Cc1noc(C(C)Nc2ccc3oc(=O)[nH]c3c2)n1", "stereo": "centres undefined", "Inhibition": 8.791}
{"structure": "O=S(=O)(CCOc1ccc(F)cc1)Nc1cnn(CC(F)F)c1", "Inhibition": 18.42}
{"structure": "CC(=O)N1[C@H](Cn2cncn2)C[C@@H]2CN(c3ccc(C)nn3)CC[C@@H]21", "Inhibition": 5.512}
{"structure": "CC(C)N1CCC(CC(=O)N2CCCCC2CCn2cccn2)CC1", "stereo": "centres undefined", "Inhibition": 7.945}
{"structure": "CC(=O)NCCNC(=O)Nc1ccc(Br)cc1C(C)C", "Inhibition": -17.69}

Data taken from ChEMBL document CHEMBL3988442, “University of Dundee, Small-Polar-MMV Screening Library” (2021).